No constants are given. Whether binding was seen depends on the method and setting. Binding seen in cells or lysates may run through a third protein. Some binding calls cover weakened binding; strength is not graded here. For some assays here: Tags and fused reporters may be left off the sequences shown.
How the values were obtained:
[1] = target: T1, FLAG-PIAS4 (UniProt Q8N2W9); experiment: co-IP; Flag-IP from U2OS cells transiently transfected with FLAG-PIAS4 and synchronized at G1, S and G2 (double thymidine block and release), with or without DNA damage; blot with RIF1 antibody
T1 sequence: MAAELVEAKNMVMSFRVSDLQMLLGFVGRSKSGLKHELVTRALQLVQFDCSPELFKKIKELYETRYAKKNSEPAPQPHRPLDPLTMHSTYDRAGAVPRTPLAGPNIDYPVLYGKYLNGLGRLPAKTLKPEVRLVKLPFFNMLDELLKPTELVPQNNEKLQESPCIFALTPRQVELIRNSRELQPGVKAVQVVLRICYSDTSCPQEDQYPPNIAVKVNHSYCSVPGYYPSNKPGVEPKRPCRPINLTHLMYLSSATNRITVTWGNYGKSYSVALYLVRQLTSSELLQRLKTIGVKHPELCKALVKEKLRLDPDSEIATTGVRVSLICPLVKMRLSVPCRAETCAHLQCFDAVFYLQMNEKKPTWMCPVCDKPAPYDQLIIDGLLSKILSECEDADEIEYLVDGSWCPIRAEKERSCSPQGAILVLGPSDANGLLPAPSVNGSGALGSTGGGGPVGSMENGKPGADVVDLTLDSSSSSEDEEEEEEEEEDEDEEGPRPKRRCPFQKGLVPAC

Chains of the proteins cited; added tags and fusions are not shown. Residues count along the entry.
UniProt P55854, residues 1-92: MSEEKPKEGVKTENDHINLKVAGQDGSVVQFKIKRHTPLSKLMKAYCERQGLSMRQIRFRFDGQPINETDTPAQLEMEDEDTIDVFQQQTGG
UniProt Q5UIP0: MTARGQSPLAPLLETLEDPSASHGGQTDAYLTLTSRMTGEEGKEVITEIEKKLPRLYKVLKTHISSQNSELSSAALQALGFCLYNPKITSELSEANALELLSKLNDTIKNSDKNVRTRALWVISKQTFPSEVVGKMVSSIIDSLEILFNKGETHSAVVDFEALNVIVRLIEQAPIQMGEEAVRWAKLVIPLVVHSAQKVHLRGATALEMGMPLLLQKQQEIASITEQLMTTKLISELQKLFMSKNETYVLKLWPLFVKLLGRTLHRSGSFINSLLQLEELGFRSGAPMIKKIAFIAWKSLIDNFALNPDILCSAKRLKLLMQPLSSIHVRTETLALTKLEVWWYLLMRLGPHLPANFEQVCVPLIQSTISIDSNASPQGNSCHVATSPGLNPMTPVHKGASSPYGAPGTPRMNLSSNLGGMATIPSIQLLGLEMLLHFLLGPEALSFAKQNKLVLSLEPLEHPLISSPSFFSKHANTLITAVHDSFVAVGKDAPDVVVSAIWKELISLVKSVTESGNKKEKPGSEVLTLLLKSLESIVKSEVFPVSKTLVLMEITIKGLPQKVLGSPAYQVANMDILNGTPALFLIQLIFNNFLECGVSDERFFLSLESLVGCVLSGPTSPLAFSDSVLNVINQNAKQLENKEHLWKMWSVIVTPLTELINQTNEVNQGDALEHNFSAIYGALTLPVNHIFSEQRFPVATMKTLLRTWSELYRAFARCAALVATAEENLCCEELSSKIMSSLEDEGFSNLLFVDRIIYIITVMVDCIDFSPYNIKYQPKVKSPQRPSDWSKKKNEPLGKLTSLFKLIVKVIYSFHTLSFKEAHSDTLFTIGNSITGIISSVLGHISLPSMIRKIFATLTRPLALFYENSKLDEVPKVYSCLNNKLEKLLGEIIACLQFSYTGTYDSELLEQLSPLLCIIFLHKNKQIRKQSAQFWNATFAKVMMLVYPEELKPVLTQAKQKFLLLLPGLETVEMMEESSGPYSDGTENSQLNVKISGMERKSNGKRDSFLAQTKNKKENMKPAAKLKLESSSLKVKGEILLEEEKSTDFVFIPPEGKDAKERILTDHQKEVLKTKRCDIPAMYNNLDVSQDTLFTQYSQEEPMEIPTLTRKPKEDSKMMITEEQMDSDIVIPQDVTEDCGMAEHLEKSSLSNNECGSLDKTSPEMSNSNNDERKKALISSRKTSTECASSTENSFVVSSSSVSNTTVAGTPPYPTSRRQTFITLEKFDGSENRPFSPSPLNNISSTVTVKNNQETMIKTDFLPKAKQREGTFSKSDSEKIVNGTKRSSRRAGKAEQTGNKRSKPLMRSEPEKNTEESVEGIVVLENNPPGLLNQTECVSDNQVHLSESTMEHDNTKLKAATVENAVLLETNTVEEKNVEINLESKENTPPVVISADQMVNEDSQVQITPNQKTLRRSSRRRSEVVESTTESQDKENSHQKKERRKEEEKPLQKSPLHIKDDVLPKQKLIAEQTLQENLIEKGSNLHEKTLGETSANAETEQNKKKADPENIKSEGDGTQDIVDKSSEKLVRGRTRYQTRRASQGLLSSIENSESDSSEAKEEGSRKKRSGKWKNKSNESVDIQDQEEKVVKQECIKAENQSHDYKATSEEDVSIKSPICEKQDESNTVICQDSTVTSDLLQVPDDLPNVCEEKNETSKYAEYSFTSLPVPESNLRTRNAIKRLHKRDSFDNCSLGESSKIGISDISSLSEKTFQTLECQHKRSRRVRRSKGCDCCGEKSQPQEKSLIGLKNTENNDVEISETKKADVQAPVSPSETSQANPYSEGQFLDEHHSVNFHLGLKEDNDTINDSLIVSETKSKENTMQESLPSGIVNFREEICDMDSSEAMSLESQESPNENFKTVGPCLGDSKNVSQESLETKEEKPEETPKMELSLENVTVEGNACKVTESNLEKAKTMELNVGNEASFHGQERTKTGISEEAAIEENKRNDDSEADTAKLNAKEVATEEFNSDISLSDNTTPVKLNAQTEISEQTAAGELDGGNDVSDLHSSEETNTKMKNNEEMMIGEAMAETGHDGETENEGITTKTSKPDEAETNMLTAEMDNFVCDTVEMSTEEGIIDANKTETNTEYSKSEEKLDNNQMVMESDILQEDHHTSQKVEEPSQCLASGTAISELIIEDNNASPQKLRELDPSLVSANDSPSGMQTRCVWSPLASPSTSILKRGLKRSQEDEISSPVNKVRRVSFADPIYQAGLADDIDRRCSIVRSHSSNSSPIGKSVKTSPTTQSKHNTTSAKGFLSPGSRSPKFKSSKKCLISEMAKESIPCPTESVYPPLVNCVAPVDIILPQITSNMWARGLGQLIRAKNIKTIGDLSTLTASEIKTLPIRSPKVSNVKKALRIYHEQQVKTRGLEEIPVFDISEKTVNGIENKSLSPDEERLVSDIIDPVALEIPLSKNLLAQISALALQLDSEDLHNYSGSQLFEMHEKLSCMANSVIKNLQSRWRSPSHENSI

[2] = target: RFP-SUMO3 (UniProt P55854); experiment: co-IP; RFP-Trap A beads (Chromotek) on lysates of U2OS cells transfected with RFP-SUMO2, RFP-SUMO3 or RFP empty vector, mock or 2.5 µg/ml bleocin; EBC buffer (50 mM Tris pH 7.3, 0.5% NP-40, 1 mM MgCl2, 50 mM iodoacetamide), Benzonase, NaCl brought to 300 mM; blot with RIF1 antibody

RIF1 (from UniProt Q5UIP0 1-2472) was tested, and the binding [1] was “binds” and the binding [2] was “binds”.

— publication PMC5727183
